Assay results from the supplement of paper PMC10849652.
Some of the results follow.

Chains of the proteins cited; added tags and fusions are not shown. Lines headed by an entry give the natural chain unless they say otherwise; changes in a name come on top.
UniProt Q15424: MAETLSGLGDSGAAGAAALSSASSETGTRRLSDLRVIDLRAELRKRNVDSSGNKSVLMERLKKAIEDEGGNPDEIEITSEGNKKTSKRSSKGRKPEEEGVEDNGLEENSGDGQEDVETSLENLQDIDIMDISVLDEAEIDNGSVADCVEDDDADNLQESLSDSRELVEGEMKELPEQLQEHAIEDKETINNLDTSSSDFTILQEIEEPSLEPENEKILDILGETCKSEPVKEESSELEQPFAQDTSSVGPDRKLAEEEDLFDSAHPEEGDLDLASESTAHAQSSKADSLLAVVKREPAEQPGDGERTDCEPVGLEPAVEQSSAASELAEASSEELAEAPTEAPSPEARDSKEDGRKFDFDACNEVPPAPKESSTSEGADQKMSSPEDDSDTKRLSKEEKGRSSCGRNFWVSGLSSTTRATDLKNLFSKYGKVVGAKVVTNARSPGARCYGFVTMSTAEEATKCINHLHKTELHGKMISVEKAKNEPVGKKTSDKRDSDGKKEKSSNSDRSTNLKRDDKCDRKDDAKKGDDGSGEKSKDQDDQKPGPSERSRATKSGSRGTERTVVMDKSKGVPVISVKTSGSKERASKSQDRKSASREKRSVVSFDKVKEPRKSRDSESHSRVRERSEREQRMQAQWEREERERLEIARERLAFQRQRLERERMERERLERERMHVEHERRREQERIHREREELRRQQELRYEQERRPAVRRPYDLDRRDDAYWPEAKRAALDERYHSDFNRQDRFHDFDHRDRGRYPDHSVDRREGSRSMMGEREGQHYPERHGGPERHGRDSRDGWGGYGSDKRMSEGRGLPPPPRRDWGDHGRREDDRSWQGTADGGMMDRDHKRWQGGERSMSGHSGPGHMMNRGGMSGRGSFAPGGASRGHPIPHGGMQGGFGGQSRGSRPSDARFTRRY
UniProt Q8WTV0: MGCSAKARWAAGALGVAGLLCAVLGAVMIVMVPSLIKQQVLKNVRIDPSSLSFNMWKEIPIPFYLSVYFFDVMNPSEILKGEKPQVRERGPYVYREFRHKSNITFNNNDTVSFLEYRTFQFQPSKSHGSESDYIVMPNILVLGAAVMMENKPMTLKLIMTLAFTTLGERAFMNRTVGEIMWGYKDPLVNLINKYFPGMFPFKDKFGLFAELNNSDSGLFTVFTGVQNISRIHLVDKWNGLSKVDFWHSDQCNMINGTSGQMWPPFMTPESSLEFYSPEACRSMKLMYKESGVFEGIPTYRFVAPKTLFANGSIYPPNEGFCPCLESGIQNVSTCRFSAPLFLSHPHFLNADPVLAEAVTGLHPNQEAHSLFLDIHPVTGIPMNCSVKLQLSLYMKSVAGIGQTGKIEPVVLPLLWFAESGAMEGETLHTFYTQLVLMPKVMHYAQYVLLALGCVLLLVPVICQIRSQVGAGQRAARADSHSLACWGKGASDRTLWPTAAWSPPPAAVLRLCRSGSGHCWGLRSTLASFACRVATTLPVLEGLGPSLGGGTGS
UniProt P25815: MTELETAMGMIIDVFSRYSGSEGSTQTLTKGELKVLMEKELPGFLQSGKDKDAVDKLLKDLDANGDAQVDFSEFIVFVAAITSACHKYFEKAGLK
UniProt Q99442: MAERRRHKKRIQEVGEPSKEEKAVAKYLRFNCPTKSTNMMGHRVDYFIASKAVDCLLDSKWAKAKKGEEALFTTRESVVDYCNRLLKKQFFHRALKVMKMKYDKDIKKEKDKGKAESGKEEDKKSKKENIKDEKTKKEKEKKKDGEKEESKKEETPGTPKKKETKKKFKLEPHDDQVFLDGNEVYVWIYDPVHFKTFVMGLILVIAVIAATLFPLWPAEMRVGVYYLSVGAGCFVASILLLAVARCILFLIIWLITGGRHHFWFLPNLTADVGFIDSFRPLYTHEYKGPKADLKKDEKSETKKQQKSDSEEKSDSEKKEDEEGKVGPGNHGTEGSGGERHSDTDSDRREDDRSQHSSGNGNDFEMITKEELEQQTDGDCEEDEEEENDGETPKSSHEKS
UniProt O15126: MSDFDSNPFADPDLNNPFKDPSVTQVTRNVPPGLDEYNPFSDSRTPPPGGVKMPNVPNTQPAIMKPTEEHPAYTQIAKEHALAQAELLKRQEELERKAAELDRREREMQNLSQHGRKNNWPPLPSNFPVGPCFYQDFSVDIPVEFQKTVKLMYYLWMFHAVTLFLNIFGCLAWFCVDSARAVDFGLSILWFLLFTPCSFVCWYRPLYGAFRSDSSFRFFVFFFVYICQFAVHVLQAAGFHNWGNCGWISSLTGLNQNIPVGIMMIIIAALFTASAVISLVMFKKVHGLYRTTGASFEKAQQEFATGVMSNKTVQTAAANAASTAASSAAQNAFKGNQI
UniProt Q96ER3: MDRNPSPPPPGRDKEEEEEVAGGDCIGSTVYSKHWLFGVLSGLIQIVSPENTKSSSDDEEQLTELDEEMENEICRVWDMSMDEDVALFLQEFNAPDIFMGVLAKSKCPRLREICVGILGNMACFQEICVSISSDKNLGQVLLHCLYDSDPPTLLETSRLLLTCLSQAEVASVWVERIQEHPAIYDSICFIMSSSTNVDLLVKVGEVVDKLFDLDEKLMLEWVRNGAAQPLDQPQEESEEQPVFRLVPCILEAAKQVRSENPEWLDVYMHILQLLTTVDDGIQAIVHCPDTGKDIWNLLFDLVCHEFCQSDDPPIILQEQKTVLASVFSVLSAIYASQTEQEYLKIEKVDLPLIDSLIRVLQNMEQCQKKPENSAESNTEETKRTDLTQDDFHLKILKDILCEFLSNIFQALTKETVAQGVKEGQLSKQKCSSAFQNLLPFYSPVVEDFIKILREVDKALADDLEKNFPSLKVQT
UniProt Q9Y6B6: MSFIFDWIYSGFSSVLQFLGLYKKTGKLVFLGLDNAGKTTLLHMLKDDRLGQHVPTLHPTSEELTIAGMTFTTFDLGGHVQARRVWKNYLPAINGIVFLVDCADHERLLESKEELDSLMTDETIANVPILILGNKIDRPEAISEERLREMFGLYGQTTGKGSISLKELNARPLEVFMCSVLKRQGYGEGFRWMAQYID
UniProt P60468, whole entry, looked up: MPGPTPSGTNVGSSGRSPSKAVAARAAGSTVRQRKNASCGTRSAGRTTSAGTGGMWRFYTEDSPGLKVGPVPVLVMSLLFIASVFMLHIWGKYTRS
UniProt Q9UGP8: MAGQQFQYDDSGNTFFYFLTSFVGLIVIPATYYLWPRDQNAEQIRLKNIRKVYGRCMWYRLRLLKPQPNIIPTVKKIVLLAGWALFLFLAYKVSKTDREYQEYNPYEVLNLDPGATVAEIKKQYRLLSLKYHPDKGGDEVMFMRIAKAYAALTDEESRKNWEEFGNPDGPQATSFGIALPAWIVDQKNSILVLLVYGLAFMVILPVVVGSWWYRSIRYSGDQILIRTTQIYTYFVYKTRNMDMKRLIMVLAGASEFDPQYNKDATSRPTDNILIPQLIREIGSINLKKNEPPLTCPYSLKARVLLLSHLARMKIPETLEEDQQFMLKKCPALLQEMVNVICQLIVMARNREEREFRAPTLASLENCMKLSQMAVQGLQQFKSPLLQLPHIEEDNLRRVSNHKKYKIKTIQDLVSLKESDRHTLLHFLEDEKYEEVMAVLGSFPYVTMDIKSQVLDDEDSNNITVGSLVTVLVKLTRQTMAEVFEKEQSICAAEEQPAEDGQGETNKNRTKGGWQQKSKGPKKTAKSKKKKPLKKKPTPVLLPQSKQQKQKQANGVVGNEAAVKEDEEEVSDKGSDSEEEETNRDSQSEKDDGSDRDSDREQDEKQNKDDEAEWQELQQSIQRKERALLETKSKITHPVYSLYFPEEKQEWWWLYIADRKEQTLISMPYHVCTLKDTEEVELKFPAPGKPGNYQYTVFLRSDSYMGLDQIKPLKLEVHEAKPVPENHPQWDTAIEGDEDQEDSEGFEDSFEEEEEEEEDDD
UniProt Q15436: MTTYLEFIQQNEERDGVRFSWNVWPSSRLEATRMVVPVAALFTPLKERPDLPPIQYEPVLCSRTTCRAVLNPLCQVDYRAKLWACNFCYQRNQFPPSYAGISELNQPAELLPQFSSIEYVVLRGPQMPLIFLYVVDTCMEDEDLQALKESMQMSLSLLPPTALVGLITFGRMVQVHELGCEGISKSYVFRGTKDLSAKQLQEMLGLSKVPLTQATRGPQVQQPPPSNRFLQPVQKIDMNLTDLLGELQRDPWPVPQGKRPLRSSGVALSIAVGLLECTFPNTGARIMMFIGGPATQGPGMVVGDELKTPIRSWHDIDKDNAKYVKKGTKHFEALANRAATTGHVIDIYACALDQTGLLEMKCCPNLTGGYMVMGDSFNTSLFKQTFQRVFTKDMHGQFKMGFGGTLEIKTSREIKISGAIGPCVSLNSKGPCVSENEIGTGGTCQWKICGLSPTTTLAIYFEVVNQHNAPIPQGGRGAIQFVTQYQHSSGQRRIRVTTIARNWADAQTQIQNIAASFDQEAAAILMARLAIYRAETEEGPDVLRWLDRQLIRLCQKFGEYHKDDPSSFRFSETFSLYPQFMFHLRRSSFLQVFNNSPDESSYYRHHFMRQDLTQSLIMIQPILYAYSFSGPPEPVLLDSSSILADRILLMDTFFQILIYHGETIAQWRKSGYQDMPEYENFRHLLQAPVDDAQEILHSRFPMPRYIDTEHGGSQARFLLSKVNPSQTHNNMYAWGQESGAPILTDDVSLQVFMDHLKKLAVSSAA
UniProt O43819: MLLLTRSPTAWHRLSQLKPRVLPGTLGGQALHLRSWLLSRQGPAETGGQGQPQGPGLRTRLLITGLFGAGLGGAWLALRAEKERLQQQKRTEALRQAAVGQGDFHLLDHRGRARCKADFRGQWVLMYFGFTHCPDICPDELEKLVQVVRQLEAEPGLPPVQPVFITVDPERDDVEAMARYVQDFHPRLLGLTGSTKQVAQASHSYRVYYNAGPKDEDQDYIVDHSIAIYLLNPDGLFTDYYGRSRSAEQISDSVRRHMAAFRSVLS
UniProt Q9Y6U3: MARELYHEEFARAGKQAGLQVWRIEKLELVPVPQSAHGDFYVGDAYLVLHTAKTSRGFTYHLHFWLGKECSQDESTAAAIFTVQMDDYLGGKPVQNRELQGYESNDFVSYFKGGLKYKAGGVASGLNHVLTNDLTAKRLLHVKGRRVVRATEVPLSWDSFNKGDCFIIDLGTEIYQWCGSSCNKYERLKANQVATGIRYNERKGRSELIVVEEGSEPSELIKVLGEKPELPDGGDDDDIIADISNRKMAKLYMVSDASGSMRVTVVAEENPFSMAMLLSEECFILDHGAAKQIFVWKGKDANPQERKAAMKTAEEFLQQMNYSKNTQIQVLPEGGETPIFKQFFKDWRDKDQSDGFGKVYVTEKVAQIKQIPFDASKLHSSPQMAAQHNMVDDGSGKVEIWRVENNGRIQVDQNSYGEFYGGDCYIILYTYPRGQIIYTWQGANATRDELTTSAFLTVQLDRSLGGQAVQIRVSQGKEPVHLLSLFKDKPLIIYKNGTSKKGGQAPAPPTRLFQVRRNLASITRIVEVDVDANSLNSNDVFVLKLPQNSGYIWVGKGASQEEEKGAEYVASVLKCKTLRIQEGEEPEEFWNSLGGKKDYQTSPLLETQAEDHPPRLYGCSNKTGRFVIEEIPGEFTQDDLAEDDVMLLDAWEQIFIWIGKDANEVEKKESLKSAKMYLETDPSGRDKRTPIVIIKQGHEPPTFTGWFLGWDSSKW

Assays:
Assay in all cases: log2 fold change, soluble protein after heating vs DMSO (PISA); higher = thermal stabilisation; K562 lysate, 10 uM; active = over 0.2 and 3.5 SD of the protein, either way, in both replicates (recomputed)
erlotinib = compound: C#Cc1cccc(Nc2ncnc3cc(OCCOC)c(OCCOC)cc23)c1 [erlotinib]
Method in brief: (§1)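 K562 pellets were dounce-homogenised in PBS pH 7.4 with 1 mM MgCl2, and the crude extract at 1 mg/mL protein was treated with 10 μM compound for 30 min. Aliquots were heated for 3 min across 48°C-58°C, pooled, and brought to 0.5% NP-40 at 4°C; soluble protein was the supernatant after 21,000xg for 90 min. Soluble protein was quantified by TMTpro 16plex LC-MS/MS with channel sums equalised, and reported as log2 fold change in thermal stability against DMSO controls, with values from duplicates.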

[1] = compound: C/C(=N\NC(=O)C1=CC(=CC=C1)S(=O)(=O)N2CCOCC2)/C3=C(C=CC(=C3)Cl)O
Method in brief: as §1

[2] = compound: C1=CC(=CC=C1C2=NC3=C(N2)C=C(C=C3)C(=O)N)OC4=CC=C(C=C4)Cl
Method in brief: as §1

[3] = compound: C1=CC2=C(C=CC(=C2)/C=C\3/C(=O)NC(=NCC4=CC=CS4)S3)N=C1
Method in brief: as §1

[4] = compound: C1=CC2=NC=CN=C2C=C1/C=C/3\C(=O)NC(=O)S3
Method in brief: as §1

[5] = compound: C1=CC=C(C=C1)C2=NC(=C(N2)C3=CC=NC=C3)C4=CC(=C(C=C4)Cl)O
Method in brief: as §1

[6] = compound: C1=CC=C2C(=C1)C3=NNC4=CC=CC(=C43)C2=O
Method in brief: as §1

[7] = compound: C1CCN(C1)C(=O)NC2=CC=CC(=C2)NC3=NC=C(C(=N3)NCCC4=CN=CN4)Br
Method in brief: as §1

[8] = compound: C1CN(CCC1(CC2=CC=C(C=C2)Cl)N)C3=NC=NC4=C3C=CN4
Method in brief: as §1

IRAK-1-4 Inhibitor I = compound: C1COCCN1CCN2C3=CC=CC=C3N=C2NC(=O)C4=CC(=CC=C4)[N+](=O)[O-] [IRAK-1-4 Inhibitor I]
Method in brief: as §1

ibrutinib = compound: C=CC(=O)N1CCC[C@@H](n2nc(-c3ccc(Oc4ccccc4)cc3)c3c(N)ncnc32)C1 [ibrutinib]
Method in brief: as §1

[9] = compound: CC(=O)c1cnc2ccc(-c3cc(Cl)c(O)c(Cl)c3)nc2c1N[C@H]1CC[C@H](CN(C)C)CC1
Method in brief: as §1

ralimetinib = compound: CC(C)(C)Cn1c(N)nc2ccc(-c3[nH]c(C(C)(C)C)nc3-c3ccc(F)cc3)nc21 [ralimetinib]
Method in brief: as §1

[10] = compound: CC(C)(O)CC(=O)NCCn1ccc2ncnc(Nc3ccc(Oc4cccc(C(F)(F)F)c4)c(Cl)c3)c21
Method in brief: as §1

[11] = compound: CC(C)C1=C2N=C(C=C(N2N=C1)NCC3=CC=CC=C3)NCCCCCCN
Method in brief: as §1

[12] = compound: CC1=C(C(CC(=O)N1)C2=CC=C(C=C2)C(F)(F)F)C(=O)NC3=C(C=C4C(=C3)C=NN4)F
Method in brief: as §1

[13] = compound: CC1=C(C2=C(C=C1)C(=O)C3=CC=CC=C3N2CCCN)C
Method in brief: as §1

[14] = compound: CC1=C(C=C(C=C1)NC(=O)C2=CC(=CC=C2)C(C)(C)C#N)NC3=CC4=C(C=C3)N=CN(C4=O)C
Method in brief: as §1

[15] = compound: CC1=C(C=C(C=C1)NC(=O)C2=CC(=CC=C2)N(C)C)NC(=O)C3=CC=C(C=C3)O
Method in brief: as §1

[16] = compound: CC1=CC=C(C=C1)SC2=C3C=C(SC3=CN=C2)C(=O)N
Method in brief: as §1

Measured: log2 fold change

SAFB isoform 3 (UniProt Q15424)
inactive: erlotinib 0.001 | [1] -0.039 | [2] 0.058 | [3] -0.037 | [4] 0.008 | [5] 0.021 | [6] -0.043 | [7] -0.001 | [8] -0.027 | IRAK-1-4 Inhibitor I -0.006 | ibrutinib 0.044 | [9] 0.012 | ralimetinib -0.063 | [10] -0.006 | [11] -0.017 | [12] -0.012 | [13] -0.02 | [14] -0.011 | [15] -0.018 | [16] -0.046

SCARB1 isoform 2 (UniProt Q8WTV0)
inactive: erlotinib 0.008 | [1] -0.022 | [2] 0.014 | [3] 0.004 | [4] 0.012 | [5] -0.023 | [6] -0.002 | [7] 0.017 | [8] 0.012 | IRAK-1-4 Inhibitor I 0.044 | ibrutinib 0.035 | [9] -0.005 | ralimetinib 0.024 | [10] -0.038 | [11] -0.015 | [12] -0.009 | [13] 0.014 | [14] 0.05 | [15] 0.012 | [16] -0.017

S100P (UniProt P25815)
inactive: erlotinib 0.054 | [1] 0.137 | [2] -0.051 | [3] 0.002 | [4] -0.075 | [5] -0.004 | [6] -0.086 | [7] 0.034 | [8] 0.033 | IRAK-1-4 Inhibitor I 0.018 | ibrutinib 0.011 | [9] -0.036 | ralimetinib 0 | [10] -0.007 | [11] 0.02 | [12] -0.078 | [13] 0.061 | [14] 0.116 | [15] 0.054 | [16] 0.074

SEPTIN5 (UniProt G3XAH0)
inactive: erlotinib -0.015 | [1] 0.02 | [2] 0.048 | [3] -0.032 | [4] 0.036 | [5] 0.017 | [6] 0.051 | [7] 0.037 | [8] -0.011 | IRAK-1-4 Inhibitor I -0.025 | ibrutinib -0.002 | [9] -0.004 | ralimetinib -0.046 | [10] -0.036 | [11] 0.003 | [12] 0.011 | [13] 0.044 | [14] -0.02 | [15] -0.018 | [16] 0.062

SEC62 (UniProt Q99442)
inactive: erlotinib -0.046 | [1] -0.008 | [2] 0.018 | [3] 0.046 | [4] -0.021 | [5] 0.036 | [6] -0.022 | [7] -0.017 | [8] -0.009 | IRAK-1-4 Inhibitor I 0.042 | ibrutinib 0.002 | [9] -0.027 | ralimetinib -0.032 | [10] -0.058 | [11] 0.02 | [12] 0.013 | [13] -0.006 | [14] 0.022 | [15] 0.002 | [16] -0.015

SCAMP1 (UniProt O15126)
inactive: erlotinib -0.003 | [1] -0.031 | [2] 0.014 | [3] -0.005 | [4] -0.04 | [5] -0.048 | [6] -0.016 | [7] 0.004 | [8] 0.026 | IRAK-1-4 Inhibitor I 0.049 | ibrutinib 0 | [9] 0.003 | ralimetinib -0.024 | [10] -0.063 | [11] 0.035 | [12] 0.037 | [13] 0.001 | [14] 0.008 | [15] 0.033 | [16] -0.004

Quoted from the results shown (2 entries):
SEC62 (UniProt Q99442)
inactive: erlotinib -0.046 | [1] -0.008 | [2] 0.018 | [3] 0.046 | [4] -0.021 | [5] 0.036 | [6] -0.022 | [7] -0.017 | [8] -0.009 | IRAK-1-4 Inhibitor I 0.042 | ibrutinib 0.002 | [9] -0.027 | ralimetinib -0.032 | [10] -0.058 | [11] 0.02 | [12] 0.013 | [13] -0.006 | [14] 0.022 | [15] 0.002 | [16] -0.015

SCAMP1 (UniProt O15126)
inactive: erlotinib -0.003 | [1] -0.031 | [2] 0.014 | [3] -0.005 | [4] -0.04 | [5] -0.048 | [6] -0.016 | [7] 0.004 | [8] 0.026 | IRAK-1-4 Inhibitor I 0.049 | ibrutinib 0 | [9] 0.003 | ralimetinib -0.024 | [10] -0.063 | [11] 0.035 | [12] 0.037 | [13] 0.001 | [14] 0.008 | [15] 0.033 | [16] -0.004

Further entries follow.

SAAL1 (UniProt Q96ER3)
inactive: erlotinib 0.016 | [1] 0.038 | [2] -0.029 | [3] 0.013 | [4] 0.012 | [5] 0.031 | [6] -0.006 | [7] -0.031 | [8] -0.004 | IRAK-1-4 Inhibitor I -0.028 | ibrutinib 0.057 | [9] 0.024 | ralimetinib -0.016 | [10] 0.047 | [11] 0.002 | [12] -0.003 | [13] 0.008 | [14] -0.046 | [15] 0.002 | [16] -0.004

SDAD1 (UniProt Q9NVU7)
inactive: erlotinib -0.035 | [1] 0.001 | [2] -0.029 | [3] 0.016 | [4] -0.041 | [5] 0.021 | [6] 0.014 | [7] 0.029 | [8] -0.003 | IRAK-1-4 Inhibitor I -0.022 | ibrutinib 0.021 | [9] -0.013 | ralimetinib 0.018 | [10] -0.027 | [11] -0.01 | [12] 0.02 | [13] -0.022 | [14] 0.003 | [15] 0.022 | [16] 0.009

SAR1B (UniProt Q9Y6B6)
inactive: erlotinib -0.143 | [1] 0.011 | [2] 0.042 | [3] -0.046 | [4] -0.065 | [5] -0.045 | [6] 0.029 | [7] -0.126 | [8] 0.025 | IRAK-1-4 Inhibitor I 0.041 | ibrutinib 0.02 | [9] -0.094 | ralimetinib 0.045 | [10] -0.032 | [11] 0.093 | [12] 0.154 | [13] -0.018 | [14] 0.026 | [15] -0.065 | [16] 0.077

SEC61B (UniProt P60468)
inactive: erlotinib -0.006 | [1] 0.016 | [2] -0.006 | [3] -0.012 | [4] -0.013 | [5] -0.021 | [6] 0.054 | [7] -0.042 | [8] -0.068 | IRAK-1-4 Inhibitor I 0 | ibrutinib -0.034 | [9] 0.008 | ralimetinib 0.012 | [10] -0.056 | [11] -0.05 | [12] 0.042 | [13] 0.089 | [14] -0.063 | [15] 0.026 | [16] -0.041

SEC63 (UniProt Q9UGP8)
inactive: erlotinib -0.017 | [1] -0.067 | [2] 0.032 | [3] 0.011 | [4] -0.033 | [5] -0.008 | [6] -0.034 | [7] -0.02 | [8] 0.022 | IRAK-1-4 Inhibitor I 0.024 | ibrutinib 0.018 | [9] 0.023 | ralimetinib -0.003 | [10] 0.003 | [11] -0.024 | [12] -0.012 | [13] -0.014 | [14] 0.016 | [15] -0.011 | [16] 0.01

SEC23A (UniProt Q15436)
inactive: erlotinib 0.041 | [1] 0.011 | [2] 0.036 | [3] 0.037 | [4] 0.002 | [5] -0.011 | [6] -0.014 | [7] -0.044 | [8] -0.01 | IRAK-1-4 Inhibitor I 0 | ibrutinib 0.026 | [9] -0.023 | ralimetinib 0.015 | [10] 0 | [11] -0.059 | [12] 0.005 | [13] 0.011 | [14] 0 | [15] -0.003 | [16] -0.01

SCO2 (UniProt O43819)
inactive: erlotinib 0.055 | [1] -0.09 | [2] 0.057 | [3] 0.023 | [4] -0.017 | [5] 0.085 | [6] 0.035 | [7] 0.014 | [8] 0.041 | IRAK-1-4 Inhibitor I -0.015 | ibrutinib -0.021 | [9] -0.065 | ralimetinib -0.02 | [10] -0.142 | [11] 0 | [12] -0.258 | [13] -0.009 | [14] 0.017 | [15] 0.01 | [16] -0.117

SCIN (UniProt Q9Y6U3)
inactive: erlotinib 0 | [1] 0.013 | [2] 0.023 | [3] 0.013 | [4] -0.017 | [5] 0.002 | [6] 0.003 | [7] -0.008 | [8] -0.001 | IRAK-1-4 Inhibitor I 0.028 | ibrutinib -0.008 | [9] 0.021 | ralimetinib -0.006 | [10] -0.015 | [11] -0.021 | [12] 0.012 | [13] -0.004 | [14] 0.026 | [15] -0.016 | [16] 0.009

SCRIB (UniProt Q14160)
inactive: erlotinib 0.013 | [1] -0.031 | [2] -0.015 | [3] -0.006 | [4] -0.006 | [5] -0.027 | [6] 0.023 | [7] -0.01 | [8] 0.01 | IRAK-1-4 Inhibitor I -0.022 | ibrutinib 0.043 | [9] 0.023 | ralimetinib 0.02 | [10] 0.003 | [11] -0.046 | [12] -0.003 | [13] 0.009 | [14] 0.013 | [15] 0.034 | [16] -0.024
